Test results taken from the supplement of paper PMC9938546.
Counter-ions that a name gives are not always drawn. The list shows a part of the results. Baselines shift from plate to plate; read single values as rough.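 HCT116-GFP is a human colorectal cancer cell line that carries a KRAS mutation, is microsatellite-unstable and always makes green fluorescent protein; the immune cells came from healthy donors. Live-cell imaging of the green signal stood in for cancer cell survival, and activated immune cells alone cut survival to about half.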

test system: HCT116-GFP; assay: HCT116-GFP viability (GFP intensity) relative to untreated HCT116-GFP monoculture control, co-culture with activated PBMCs; higher = less cancer cell killing; settings: culture: co-culture with anti-CD3/IL2 activated PBMCs 1:1; 10 µM; 72 h

| SMILES | HCT116-GFP viability |
| --- | --- |
| NCCCC[C@H](N[C@@H](CCc1ccccc1)C(=O)O)C(=O)N1CCC[C@H]1C(=O)O [Lisinopril] | 35.6% |
| O=C(Nc1cccc2c(=O)cc(-c3nnn[nH]3)oc12)c1ccc(OCCCCc2ccccc2)cc1 [Pranlukast] | 73.1% |
| CC(C)(C)NC[C@H](O)COc1nsnc1N1CCOCC1 [Timolol maleate salt] | 71.8% |
| CCOC(=O)[C@H](CCc1ccccc1)N[C@H]1CCc2ccccc2N(CC(=O)O)C1=O [Benazepril hydrochloride] | 55.7% |
| COC1=C(OC)C(=O)C(CCCCCCCCCCO)=C(C)C1=O [Idebenone] | 54.3% |
| CCOC(=O)OC(C)OC(=O)[C@@H]1N2C(=O)[C@@H](NC(=O)[C@H](N)c3ccccc3)[C@H]2SC1(C)C (stereo partly specified) [Bacampicillin hydrochloride] | 24.5% |
| CC[C@H]1OC(=O)[C@H](C)[C@@H](O[C@H]2C[C@@](C)(OC)[C@@H](O)[C@H](C)O2)[C@H](C)[C@@H](O[C@@H]2O[C@H](C)C[C@H](N(C)C)[C@H]2O)[C@](C)(O)C[C@@H](C)/C(=N\OCOCCOC)[C@H](C)[C@@H](O)[C@]1(C)O [Roxithromycin] | 71.1% |
| Nc1nc(F)nc2c1ncn2[C@@H]1O[C@H](CO)[C@@H](O)[C@@H]1O [Fludarabine] | 2.4% |
| Nc1nc(=O)c2nc(CNc3ccc(C(=O)N[C@@H](CCC(=O)O)C(=O)O)cc3)cnc2[nH]1 [Folic acid] | 39.3% |
| CC(=O)N[C@@H](CC(C)C)C(=O)O [N-Acetyl-L-leucine] | 73.7% |
| CC(C)C(=O)OCC(=O)[C@@]12O[C@H](C3CCCCC3)O[C@@H]1C[C@H]1[C@@H]3CCC4=CC(=O)C=C[C@]4(C)[C@H]3[C@@H](O)C[C@@]12C [Ciclesonide] | 54.6% |
| O=C1CN2Cc3c(ccc(Cl)c3Cl)N=C2N1 [Anagrelide] | 34.3% |
| Nc1nc(=S)c2ncn([C@@H]3O[C@H](CO)[C@@H](O)[C@H]3O)c2[nH]1 [Thioguanosine] | 14.3% |
| CC(C)NCC(O)COc1ccc(COCCOC(C)C)cc1 (stereo unspecified) [Bisoprolol fumarate] | 47.7% |
| CO[C@H]1/C=C/O[C@@]2(C)Oc3c(C)c(O)c4c(c3C2=O)C2=NC3(CCN(CC(C)C)CC3)NC2=C(NC(=O)/C(C)=C\C=C\[C@H](C)[C@H](O)[C@@H](C)[C@@H](O)[C@@H](C)[C@H](OC(C)=O)[C@@H]1C)C4=O [Rifabutin] | 14% |
| O=C(Cn1ccnc1[N+](=O)[O-])NCCO [Etanidazole] | 77.2% |
| CN(C)CCN(Cc1cccs1)c1ccccn1 [Methapyrilene hydrochloride] | 44.2% |
| COc1c(O[C@@H]2O[C@H](CO)[C@@H](O)[C@H](O)[C@H]2O)cc2c(c1OC)-c1ccc(SC)c(=O)cc1[C@@H](NC(C)=O)CC2 [Thiocolchicoside] | 29.1% |
| Clc1ccc(C(Cn2ccnc2)OCc2c(Cl)cccc2Cl)c(Cl)c1 (stereo unspecified) [Isoconazole] | 41.3% |
| NC(=O)N1c2ccccc2C=Cc2ccccc21 [Carbamazepine] | 54.4% |
| COc1cc2nc(N3CCN(C(=O)c4ccco4)CC3)nc(N)c2cc1OC [Prazosin hydrochloride] | 23.2% |
| CCn1cc(C(=O)O)c(=O)c2cnc(N3CCNCC3)nc21 [Pipemidic acid] | 76.4% |
| COc1nc(C)nc(Cl)c1NC1=NCCN1 [Moxonidine] | 31.3% |

| SMILES | HCT116-GFP viability |
| --- | --- |
| CC(=O)N[C@@H](CC(=O)N[C@@H](CCC(=O)O)C(=O)O)C(=O)O [Spaglumic acid] | 48.2% |
| Cc1ccc(S(=O)(=O)NC(=O)NN2CC3CCCC3C2)cc1 (stereo unspecified) [Gliclazide] | 65.1% |
| C#CCN(C)Cc1ccccc1 [Pargyline hydrochloride] | 38% |
| CCn1cc(C(=O)O)c(=O)c2ccc(C)nc21 [Nalidixic acid sodium salt] | 55.6% |
| COc1ccc2cc(CCC(C)=O)ccc2c1 [Nabumetone] | 66.8% |
| O=C(CCCN1CC=C(n2c(=O)[nH]c3ccccc32)CC1)c1ccc(F)cc1 [Droperidol] | 32.9% |
| CCN(CC)CCNC(=O)c1cc(S(C)(=O)=O)ccc1OC [Tiapride hydrochloride] | 34.7% |
| CN1C2CCCC1CC(NC(=O)c1nn(C)c3ccccc13)C2 (stereo unspecified) [Granisetron] | 55.1% |
| CC(C)N1CCN(c2ccc(OCC3COC(Cn4cncn4)(c4ccc(Cl)cc4Cl)O3)cc2)CC1 (stereo unspecified) [Terconazole] | 59.4% |
| CN(C)CCOC1=Cc2ccccc2Sc2ccc(Cl)cc21 [Zotepine] | 69.7% |
| CCN(Cc1ccncc1)C(=O)C(CO)c1ccccc1 (stereo unspecified) [Tropicamide] | 46.5% |
| O=C(NCCNCC(O)COc1ccc(O)cc1)N1CCOCC1 (stereo unspecified) [Xamoterol hemifumarate] | 74.2% |
| Cc1ncc([N+](=O)[O-])n1CCO [Metronidazole] | 44.1% |
| CCN(CC)CC#CCOC(=O)C(O)(c1ccccc1)C1CCCCC1 (stereo unspecified) [Oxybutynin chloride] | 53.4% |
| OC(CCN1CCCCC1)(c1ccccc1)C1CC2C=CC1C2 (stereo unspecified) [Biperiden hydrochloride] | 55.8% |
| COc1ccc(C(=O)NCc2cccnc2)cc1C(=O)NCc1cccnc1 [Picotamide monohydrate] | 45.2% |
| COc1ccc2[nH]cc(CCNC(C)=O)c2c1 [Melatonin] | 62.5% |
| NC[C@H]1O[C@H](O[C@H]2[C@H](O[C@@H]3O[C@H](CO)[C@@H](O)[C@H]3O)[C@@H](O)[C@H](N)C[C@@H]2N)[C@H](N)[C@@H](O)[C@@H]1O [Ribostamycin sulfate salt] | 72.1% |
| Cc1ccc(C(=O)c2cc(O)c(O)c([N+](=O)[O-])c2)cc1 [Tolcapone] | 39.5% |
| CN1CCCCC1CCN1c2ccccc2Sc2ccc([S+](C)[O-])cc21 (stereo unspecified) [Mesoridazine besylate] | 41.6% |
| NC(=O)N/N=C/c1ccc([N+](=O)[O-])o1 [Nitrofural] | 42.4% |
| CN(C)CCC[C@@]1(c2ccc(F)cc2)OCc2cc(C#N)ccc21 [Escitalopram oxalate] | 52.4% |
| CCCC(=O)Nc1ncnc2c1ncn2[C@@H]1O[C@@H]2COP(=O)(O)O[C@H]2[C@H]1OC(=O)CCC [Bucladesine sodium salt] | 67.9% |
